For at least one entry, the source does not settle the construct or the ends of the probe. A weaker result is weaker than the reference pair of the same experiment.

Chains of the proteins cited; added tags and fusions are not shown. Lines headed by an entry give the natural chain unless they say otherwise; changes in a name come on top.
UniProt P17028: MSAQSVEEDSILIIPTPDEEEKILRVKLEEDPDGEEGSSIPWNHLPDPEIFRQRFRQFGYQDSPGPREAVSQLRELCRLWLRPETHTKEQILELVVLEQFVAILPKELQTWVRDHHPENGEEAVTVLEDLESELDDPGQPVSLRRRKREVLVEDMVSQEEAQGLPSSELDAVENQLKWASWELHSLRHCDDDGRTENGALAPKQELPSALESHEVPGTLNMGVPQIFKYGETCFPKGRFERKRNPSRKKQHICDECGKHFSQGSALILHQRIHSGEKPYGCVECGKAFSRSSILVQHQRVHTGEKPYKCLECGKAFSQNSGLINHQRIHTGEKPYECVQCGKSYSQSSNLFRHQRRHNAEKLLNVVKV

The test system of one series is ZSCAN21. Put plainly: EMSA. The settings on record: 30 pmol protein, 3 pmol DNA, EMSA: 100 mM Tris-HCl pH 7.5, 7.5 mM KCl, 25 mM MgCl2, 375 mM NaCl, 12.5% glycerol, 5 mM DTT, 30 C, 6% gel, 4 C, recombinant protein, label: Cy3.
A further series addresses ZNF24 (UniProt P17028). Nature of the series: EMSA. The settings on record: 30 pmol protein, 3 pmol DNA, EMSA: 100 mM Tris-HCl pH 7.5, 7.5 mM KCl, 25 mM MgCl2, 375 mM NaCl, 12.5% glycerol, 5 mM DTT, 30 C, 6% gel, 4 C, recombinant protein, label: Cy3. For orientation: Mobility shift assays separate free from complexed probe on a gel.
[1] abbreviates: strongest shift, 5fC replacing C, exact positions and strand(s) not stated.

For “AAGTACCAAGTACCAAGTACCAAGTACCAAGTACC (double strand) [5C-(AAGTACC)5]”, the binding result with ZSCAN21 (shift seen) is “binds more weakly”. In the case of “AAGTACCAAGTACCAAGTACCAAGTACCAAGTACC (double strand) [5fC-(AAGTACC)5]”, the binding result in the series with ZSCAN21 (setting [1]) is on record as “binds”. Turning to “AAGTACCAAGTACCAAGTACCAAGTACCAAGTACC (double strand) [5hmC-(AAGTACC)5]”, the binding result in the series on ZSCAN21 (shift seen, 5hmC replacing C, exact positions and strand(s) not stated) is listed as “binds more weakly”. As to “AAGTACCAAGTACCAAGTACCAAGTACCAAGTACC (double strand) [5mC-(AAGTACC)5]”, the binding result in the series on ZSCAN21 (shift seen, 5mC replacing C, exact positions and strand(s) not stated) is “binds more weakly”.

As for “TCATTCATTCATTCATTCAT (double strand) [5C-(TCAT)5]”, the binding result in the series with ZNF24 is recorded as “binds more weakly”. Take “TCATTCATTCATTCATTCAT (double strand) [5fC-(TCAT)5]”: the binding result with ZNF24 (setting [1]) is listed as “binds”. Consider “TCATTCATTCATTCATTCAT (double strand) [5hmC-(TCAT)5]”, for which, in the series with ZNF24 (5hmC replacing C, exact positions and strand(s) not stated), the binding result is on record as “binds more weakly”. Turning to “TCATTCATTCATTCATTCAT (double strand) [5mC-(TCAT)5]”, the binding result in the series with ZNF24 (5mC replacing C, exact positions and strand(s) not stated) is listed as “binds more weakly”.

The values are drawn from article PMC8498917.
